The campaign covered roughly 340,000 compounds. About 170 (0.05%) were called active. The shares of active, inactive and inconclusive entries below differ from those in the screen. The call rests on the fitted dose curve; in most records, active means well fitted inhibition curve with a large enough effect in the signal ratio, with a control signal flat (not every such curve was filed as active); inconclusive means small, poorly fitted or top-dose-only effect, or effect the other way, or a change in a side signal; inactive means flat fitted curve, though single readings scatter; the % refers to the signal ratio. Where the call is inconclusive, the potency comes from a doubtful curve fit.
Assay: qHTS Assay to Find Inhibitors of Chronic Active B-Cell Receptor Signaling;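 on activity change, negative = inhibition: plate controls were basal doxycycline-induced cells for no effect and cells given 10 µM MG132 for full effect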
Conditions: ABC-DLBCL IkBa-CBG/CBR reporter, luminescence ratio (green luciferase fused to IkBa over red control in TMD8 lymphoma cells), 4 h; activity change, negative = inhibition: at 46.1 µM (top of the series) unless noted
Summary of the method: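 Doxycycline induced both beetle luciferases in TMD8 lymphoma cells; IKK-driven degradation limits the IkappaBalpha-fused green signal, while red luminescence normalises for cell number and nonspecific effects. Compounds tested up to 46 uM, 4 hrs.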
For `COc1cc([N+](=O)[O-])ccc1NC(=O)Nc1ccc2c(c1)OCCO2`, the activity change, negative = inhibition was inconclusive: 5.48%. In the case of `CCCc1cc(=O)n2c([nH]c3ccccc32)c1C#N`, the Potency is reported as inconclusive: 5.8 µM [rising, full curve, poor fit]. In the case of `Cc1ncc(CN2CCCC(C(=O)Nc3ccc(-c4cccc(F)c4)cc3)C2)n1C` (stereo unspecified), the activity change, negative = inhibition is reported as inconclusive: -11.9%. For `O/N=C(\c1ccc2c(c1)OCCO2)C1CCCCC1`, the activity change, negative = inhibition was inconclusive: 4.54%. In the case of `Cc1ccc(NC(=O)c2cc(-c3ccco3)nc3ccccc23)cc1S(=O)(=O)N1CCOCC1`, the Potency is reported as inconclusive: 15.8 µM [falling, partial curve, poor fit]. In the case of `COc1ccc(OC)c(NC(=O)C2C3CCC(C3=C(C)C)C2C(=O)O)c1` (stereo unspecified), the activity change, negative = inhibition is reported as “inactive”. With `O=C1c2ccc(-c3ccc(F)cc3OCc3ccccc3)cc2S(=O)(=O)c2cccc(C(=O)N3CCN(c4ncc(Cl)cc4Cl)CC3)c21` the activity change, negative = inhibition was inconclusive: 3.32%. For `COc1cc(SC)ccc1C(=O)Nc1ccc(OCC(=O)N2CCOCC2)cc1`, the Potency was inconclusive: 12.6 µM [falling, partial curve, poor fit]. In the case of `O=C(c1ccc(N2C(=O)C3CC=C(Cl)CC3C2=O)cc1)N1CCCCC1` (stereo unspecified), the Potency is reported as inconclusive: 25.9 µM [falling, partial curve, poor fit]. In the case of `Cc1ccc(NC(=O)C(C)N2CCc3ccccc3C2)cc1` (stereo unspecified), the activity change, negative = inhibition is reported as inconclusive: -0.174%. In the case of `Cc1ccccc1C(=O)N1CCN(c2ccc(NC(=S)NC(=O)c3ccco3)cc2)CC1`, the activity change, negative = inhibition is reported as inconclusive: -6.68%. For `O=C(CSc1nc2ccccc2[nH]1)Nc1nc(-c2ccccc2)c(-c2ccccc2)o1`, the activity change, negative = inhibition was inconclusive: 13.1%. With `Cc1ccc(NC(=O)c2cc(=O)c3ccccc3o2)cc1S(=O)(=O)N1CCCCC1` the activity change, negative = inhibition was inconclusive: -0.0789%. In the case of `C/C(=N/NC(=O)c1ccc(Br)o1)C(C)C`, the activity change, negative = inhibition is reported as inconclusive: -11.6%. With `Cc1cccc(C)c1NC(=O)COC(=O)c1ccccc1Nc1ccccc1` the activity change, negative = inhibition was inconclusive: 4.09%. With `COC(=O)c1ccccc1NC(=O)C1CCCN(S(=O)(=O)c2ccc(F)cc2)C1` (stereo unspecified) the activity change, negative = inhibition was inconclusive: -0.851%. For `Cc1nc(NC(=O)c2cccs2)ccc1Br`, the activity change, negative = inhibition was inconclusive: -19.2%. For `Cc1ccc(C)c(OCCCC(=O)Nc2ccccc2C(N)=O)c1`, the activity change, negative = inhibition was “inactive”. In the case of `COc1ccc(-c2csc(NC3OC(=O)c4c3ccc(OC)c4OC)n2)cc1OC` (stereo unspecified), the activity change, negative = inhibition is reported as inconclusive: -4.82%. For `CC(C)C(c1nnnn1C1CCCC1)N1CCN(C(=O)c2ccco2)CC1` (stereo unspecified), the activity change, negative = inhibition was “inactive”. With `CCC(=O)Nc1cc2c(cc1C(C)=O)OCCO2` the activity change, negative = inhibition was inconclusive: 4.16%. With `O=[N+]([O-])c1ccc(S(=O)(=O)NCCS(=O)(=O)N2CCN(c3ccccc3)CC2)cc1` the activity change, negative = inhibition was “inactive”. In the case of `Clc1ccc(CN2C3=NCCCN3c3ccccc32)cc1`, the activity change, negative = inhibition is reported as inconclusive: -6.93%. For `Cc1nn(C(=O)c2cccc([N+](=O)[O-])c2)c(C)c1Cl`, the activity change, negative = inhibition was inconclusive: 5.62%. In the case of `CC1(C(=O)Nc2ccccc2)Cc2ccccc2C(=O)O1` (stereo unspecified), the activity change, negative = inhibition is reported as inconclusive: -15%. With `O=C(CNC(=O)c1ccccc1F)N/N=C/c1cc(Br)ccc1OC(=O)/C=C/c1ccco1` the activity change, negative = inhibition was “inactive”. In the case of `CN(CC(=O)Nc1ccc(C#N)cc1)CC(=O)Nc1ccc(N2CCOCC2)cc1`, the Potency is reported as inconclusive: 13 µM [falling, partial curve, poor fit]. In the case of `CCCSC1=C(C#N)C(c2ccc(Cl)cc2Cl)CC(=O)N1` (stereo unspecified), the Potency is reported as inconclusive: 16.4 µM [falling, partial curve, poor fit]. With `CCOCCCN(CCC#N)S(=O)(=O)c1ccc(S(=O)(=O)N2CCCC2)cc1` the activity change, negative = inhibition was “inactive”. With `O=C(O)c1ccc(N2CCN(C(c3ccccc3)c3ccccc3)CC2)c([N+](=O)[O-])c1` the activity change, negative = inhibition was inconclusive: 11%. In the case of `O=C(CNC(=O)Cc1cccc2ccccc12)NCc1ccccc1F`, the activity change, negative = inhibition is reported as “inactive”. For `Cc1ccc(-c2nc3ccccc3[nH]2)cc1NC(=O)c1sc2cc(Cl)ccc2c1Cl`, the activity change, negative = inhibition was inconclusive: 9.08%. With `Cc1cc(C)n(-c2nc(Nc3ccccc3)nc(-n3nc(C)cc3C)n2)n1` the activity change, negative = inhibition was inconclusive: 3.51%. With `COC(=O)c1c(C)[nH]c(C(=O)C(C)OC(=O)C2CC(=O)N(c3ccc(C)cc3)C2)c1C` (stereo unspecified) the activity change, negative = inhibition was inconclusive: -12.6%. With `Nc1nnc(CC(=O)N/N=C/c2cccc(OCCOc3ccccc3)c2)s1` the Potency was inconclusive: 29.1 µM [falling, single point]. For `Cc1nc(-c2ccccc2)sc1C1(C)CC(c2ccc(OC(F)(F)F)cc2)=NO1` (stereo unspecified), the activity change, negative = inhibition was inconclusive: 15.7%. In the case of `Cc1cc(C)nc(NC(=O)c2ccc([N+](=O)[O-])o2)n1`, the activity change, negative = inhibition is reported as “inactive”. For `CCN(C(=O)COC(=O)c1[nH]c(C)c(C(C)=O)c1C)C1CCS(=O)(=O)C1` (stereo unspecified), the Potency was inconclusive: 20 µM [falling, single point]. With `CN(c1ccccc1)S(=O)(=O)c1ccc(Cl)c(C(=O)NCCc2c[nH]c3ccccc23)c1` the activity change, negative = inhibition was inconclusive: -3.43%. With `COc1cccc(NC(=S)NCc2ccc3c(c2)cc(C)n3C)c1` the activity change, negative = inhibition was “inactive”. In the case of `Cc1ccc(-c2nn(-c3ccccc3)cc2C(=O)NCC(c2cccs2)N2CCOCC2)cc1` (stereo unspecified), the activity change, negative = inhibition is reported as inconclusive: 14.4%. In the case of `N#CCSc1nc2cc(C(=O)N3CCC(C(N)=O)CC3)ccc2c2nc3ccccc3n12`, the activity change, negative = inhibition is reported as inconclusive: -4.3%. For `COC(=O)C1CCN(Cc2nnc(-c3ccccc3)o2)CC1`, the activity change, negative = inhibition was inconclusive: 1.7%. For `Cn1c(=O)c2[nH]c(Nc3ccccc3)nc2n(C)c1=O`, the activity change, negative = inhibition was inconclusive: 11.7%. For `COc1ccc(CNC(C)C23CC4CC(CC(C4)C2)C3)c(OC)c1OC` (stereo unspecified), the activity change, negative = inhibition was inconclusive: -7.16%. With `O/N=C(/c1ccc(Cl)cc1)C1CC1c1ccccc1` (stereo unspecified) the activity change, negative = inhibition was inconclusive: 8.02%. For `N#CCCn1c(SCC(=O)Nc2ccc(N3CCOCC3)cc2)nc2ccccc21`, the activity change, negative = inhibition was inconclusive: -3.12%. For `COc1cc(C2C(C(=O)Nc3ccc(F)cc3)=C(C)Nc3nc(CCCO)nn32)cc(OC)c1OC` (stereo unspecified), the activity change, negative = inhibition was inconclusive: 0.0115%. With `COc1ccc(NC(=O)CN(C)C(=O)c2cc3c(s2)CCC(C)C3)cc1` (stereo unspecified) the activity change, negative = inhibition was inconclusive: 5.97%. With `CC1(C)Cc2c(sc3ncnc(NNC(=S)NCc4ccccc4)c23)CO1` the activity change, negative = inhibition was inconclusive: -13.9%. For `COc1ccc2cc(S(=O)(=O)c3ccccc3)c(=O)oc2c1`, the activity change, negative = inhibition was “inactive”. In the case of `CCCn1c(=NC(=O)c2c(-c3c(F)cccc3Cl)noc2C)c(C(=O)OCC)cc2c(=O)n3ccccc3nc21`, the activity change, negative = inhibition is reported as inconclusive: 9.32%. In the case of `CCCNC(=O)c1c(N)n(-c2cc(OC)cc(OC)c2)c2nc3ccccc3nc12`, the activity change, negative = inhibition is reported as inconclusive: 2.72%. For `CC(Oc1cc2oc(=O)cc(-c3ccccc3)c2cc1Cl)C(=O)NCC1CCC(C(=O)O)CC1` (stereo unspecified), the activity change, negative = inhibition was “inactive”. In the case of `O=c1[nH]c(C2CCN(S(=O)(=O)c3cccc(C(F)(F)F)c3)CC2)nc2c1nnn2Cc1cccc(F)c1`, the Potency is reported as inconclusive: 22.4 µM [falling, single point]. For `NC(=NCCc1c[nH]c2ccccc12)NS(=O)(=O)c1ccc2ccccc2c1`, the activity change, negative = inhibition was inconclusive: -14.5%. With `CC(=O)N/N=C\c1cccc(OC/C=C/c2ccccc2)c1` the Potency was inconclusive: 22.4 µM [falling, partial curve]. In the case of `C1=C(CCNc2ncnc3c2[nH]c2ccccc23)CCCC1`, the Potency is reported as inconclusive: 11.6 µM [rising, partial curve, poor fit]. In the case of `CC1CC(C)CN(C(=O)COc2ccc([N+](=O)[O-])cc2Cl)C1` (stereo unspecified), the activity change, negative = inhibition is reported as inconclusive: 11.7%. In the case of `Cc1[nH]n(-c2ccccc2)c(=O)c1N=Nc1ccc(C(=O)O)cc1`, the Potency is reported as inconclusive: 8.91 µM [falling, partial curve, poor fit]. For `CSCCC(NS(=O)(=O)c1ccc(C)cc1)C(=O)NCC(C)(C)N1CCOCC1` (stereo unspecified), the activity change, negative = inhibition was inconclusive: 3.41%. With `COc1ccc(S(=O)(=O)N2CCOC2CNC(=O)C(=O)NCc2cccnc2)cc1C` (stereo unspecified) the activity change, negative = inhibition was inconclusive: -6.22%. For `CCOC(=O)c1sc(NC(=S)NC(=O)C2CC2)cc1C`, the Potency was inconclusive: 0.0731 µM [falling, full curve, poor fit]. With `CCOC(=O)C1CCN(S(=O)(=O)c2cn(C)c(=O)n(C)c2=O)CC1` the activity change, negative = inhibition was inconclusive: 11.5%. In the case of `CCOC(=O)N1CCN(C(=O)COc2ccc(S(=O)(=O)NC(C)C)cc2)CC1`, the activity change, negative = inhibition is reported as inconclusive: -0.171%. For `COc1ccccc1C(=O)NNC(=S)NC(=O)c1sc2ccccc2c1Cl`, the Potency was inconclusive: 1.3 µM [falling, full curve, poor fit]. In the case of `Brc1ccc(-c2nnc(-c3ccccc3)c(N3CCSCC3)n2)cc1`, the activity change, negative = inhibition is reported as inconclusive: 188%. In the case of `CC1Cc2ccccc2N1S(=O)(=O)c1cccc(C(=O)OCC(=O)N2CCOCC2)c1` (stereo unspecified), the activity change, negative = inhibition is reported as inconclusive: -0.0585%. For `CCCCOc1ccc(C(=O)NCC(=O)N2CC(C)OC(C)C2)cc1` (stereo unspecified), the activity change, negative = inhibition was inconclusive: 5.88%. In the case of `COc1ccccc1/C=N/NC(=O)C(NC(=O)c1ccccc1)=C(C)C`, the Potency is reported as inconclusive: 10.3 µM [falling, partial curve]. In the case of `Cc1cc(OCC(=O)N(C)c2c(N)n(Cc3ccccc3)c(=O)[nH]c2=O)c(C(C)C)cc1Cl`, the activity change, negative = inhibition is reported as inconclusive: 13.9%. In the case of `CNC(=O)Nc1ccc(C2SCCS2)cc1`, the Potency is reported as inconclusive: 35.5 µM [falling, single point]. In the case of `COc1ccc(-n2nc(C(=O)Nc3cc(OC)c(OC)c(OC)c3)c3ccccc3c2=O)c(OC)c1`, the Potency is reported as inconclusive: 0.794 µM [falling, full curve, poor fit]. In the case of `COc1ccc(NC2CC(=O)N(c3ccccc3)C2=O)cc1` (stereo unspecified), the Potency is reported as inconclusive: 1.64 µM [rising, partial curve]. In the case of `O=C(Nc1ccccc1N1CCOCC1)c1ccc(N2CCCC2=O)cc1`, the activity change, negative = inhibition is reported as “inactive”. In the case of `CCOC(=O)CSc1nnc(SCCN2C(=O)c3ccccc3C2=O)s1`, the activity change, negative = inhibition is reported as inconclusive: -14.4%.
Potency means the concentration at half of the fitted maximal effect.
